Test system: human red cells
Assay: Binding to membranes: loss of supernatant fluorescence after equilibration with red cells
Conditions: red cells added to a hematocrit of 17%, 2 microM dye, 1 mM Ca^2+ or EGTA without Ca^2+
Protocol: Binding to membranes was assessed by adding 0.3 ml portions of well-washed,packed human red cells to 1.5 ml volumes of 2 microM fura-2, fura-3, or indo-1, in media containing 145 mM NaCl, 5 mM KCl, 10 mM MOPS, 1 mM Na2 HPO4, 1 mM MgCl2, and either 1 mM EGTA or 1 mM CaCl2. After several minutes equilibration, the suspensions were centrifuged and the fluorescence of the supernatant was measured with front-face geometry. The slight loss in fluorescence from its level before equilibration with red cells was taken to be an upper limit on the dye binding to membranes since dilution by residual extracellular water in the packed red cells or inner filter effects from traces of leaked hemoglobin would also have tended to depress the fluorescence.
Red cells were used as model membranes to test binding because they are easy to add and remove. Red cells added to a hematocrit of 17% in a solution of fura-2, fura-3, or indo-1, then centrifuged out, decreased the fluorescence of the supernatant by less than 5%. This small drop in fluorescence could have been just dilution by the small unavoidable amount of extracellular fluid added with the packed cells. Even if it were attributed entirely to binding, the amount of dye bound to a membrane would be less than that contained in a layer 0.2 microns thick of adjacent aqueous solution. Such negligible binding was found whether the medium contained 1 mM Ca^2+ or EGTA without Ca^2+.

Decrease of fluorescence of the supernatant (upper limit of dye binding to membranes), less than 5%:
Cc1ccc(N(CC(=O)O)CC(=O)O)c(OCCOc2cc3cc(-c4ncc(C(=O)O)o4)oc3cc2N(CC(=O)O)CC(=O)O)c1 [fura-2, 1-(2-(5'-carboxyoxazol-2'-yl)-6-aminobenzofuran-5-oxy)-2-(2'-amino-5'-methylphenoxy)ethane-N,N,N',N'-tetraacetic acid]
Cc1ccc(N(CC(=O)O)CC(=O)O)c(OCCOc2cc3cc(-c4ccc(C#N)cc4)oc3cc2N(CC(=O)O)CC(=O)O)c1 [fura-3, 1-(2-(4-cyanophenyl)-6-aminobenzofuran-5-oxy)-2-(2'-amino-5'-methylphenoxy)ethane-N,N,N',N'-tetraacetic acid]
Cc1ccc(N(CC(=O)O)CC(=O)O)c(OCCOc2cc(-c3cc4ccc(C(=O)O)cc4[nH]3)ccc2N(CC(=O)O)CC(=O)O)c1 [indo-1, 1-(2-amino-5-[6-carboxyindolyl-2]-phenoxy)-2-(2'-amino-5'-methylphenoxy)ethane-N,N,N',N'-tetraacetic acid]

Reference: patent US4603209A, “Fluorescent indicator dyes for calcium ions” (priority 1984, dated 1986)
